Measurements published in US20160291016A1.
These are yes or no findings as the source states them, for the method shown. In cells and extracts the contact can be indirect. A result given as binding can be weak or reduced; the word gives no strength.

Protein sequences, listed by entry. Tags and fused reporters are not part of them. Lines headed by an entry give the natural chain unless they say otherwise; changes in a name come on top. Residues count along the entry.
UniProt P11688: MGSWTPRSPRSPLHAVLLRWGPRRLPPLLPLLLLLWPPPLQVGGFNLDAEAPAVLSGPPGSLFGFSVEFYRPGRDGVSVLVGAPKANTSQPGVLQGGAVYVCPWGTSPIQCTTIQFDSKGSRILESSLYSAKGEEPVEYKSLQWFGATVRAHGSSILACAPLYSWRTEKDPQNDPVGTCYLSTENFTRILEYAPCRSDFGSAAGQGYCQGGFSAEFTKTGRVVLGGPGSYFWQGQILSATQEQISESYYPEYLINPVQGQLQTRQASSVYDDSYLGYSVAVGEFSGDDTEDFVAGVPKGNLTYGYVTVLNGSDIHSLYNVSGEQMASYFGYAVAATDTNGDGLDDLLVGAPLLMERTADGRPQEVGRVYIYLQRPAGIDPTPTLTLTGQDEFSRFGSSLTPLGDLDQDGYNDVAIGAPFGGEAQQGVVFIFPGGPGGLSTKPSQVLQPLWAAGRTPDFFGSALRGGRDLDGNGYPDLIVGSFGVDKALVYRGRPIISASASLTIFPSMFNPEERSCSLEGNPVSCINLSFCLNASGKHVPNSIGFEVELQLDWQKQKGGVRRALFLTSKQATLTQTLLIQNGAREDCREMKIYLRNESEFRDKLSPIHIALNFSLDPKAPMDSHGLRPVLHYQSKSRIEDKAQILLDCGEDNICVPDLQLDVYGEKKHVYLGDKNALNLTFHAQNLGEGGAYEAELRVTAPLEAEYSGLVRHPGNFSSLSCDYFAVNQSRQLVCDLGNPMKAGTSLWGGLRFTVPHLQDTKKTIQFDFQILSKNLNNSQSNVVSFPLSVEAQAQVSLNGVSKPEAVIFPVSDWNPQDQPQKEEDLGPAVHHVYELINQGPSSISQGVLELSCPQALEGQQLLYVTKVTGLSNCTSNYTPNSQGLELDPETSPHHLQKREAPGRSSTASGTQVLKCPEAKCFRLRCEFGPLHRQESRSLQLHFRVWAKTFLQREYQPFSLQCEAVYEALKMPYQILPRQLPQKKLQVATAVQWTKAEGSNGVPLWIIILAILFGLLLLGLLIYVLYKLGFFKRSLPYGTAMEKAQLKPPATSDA
UniProt P43406: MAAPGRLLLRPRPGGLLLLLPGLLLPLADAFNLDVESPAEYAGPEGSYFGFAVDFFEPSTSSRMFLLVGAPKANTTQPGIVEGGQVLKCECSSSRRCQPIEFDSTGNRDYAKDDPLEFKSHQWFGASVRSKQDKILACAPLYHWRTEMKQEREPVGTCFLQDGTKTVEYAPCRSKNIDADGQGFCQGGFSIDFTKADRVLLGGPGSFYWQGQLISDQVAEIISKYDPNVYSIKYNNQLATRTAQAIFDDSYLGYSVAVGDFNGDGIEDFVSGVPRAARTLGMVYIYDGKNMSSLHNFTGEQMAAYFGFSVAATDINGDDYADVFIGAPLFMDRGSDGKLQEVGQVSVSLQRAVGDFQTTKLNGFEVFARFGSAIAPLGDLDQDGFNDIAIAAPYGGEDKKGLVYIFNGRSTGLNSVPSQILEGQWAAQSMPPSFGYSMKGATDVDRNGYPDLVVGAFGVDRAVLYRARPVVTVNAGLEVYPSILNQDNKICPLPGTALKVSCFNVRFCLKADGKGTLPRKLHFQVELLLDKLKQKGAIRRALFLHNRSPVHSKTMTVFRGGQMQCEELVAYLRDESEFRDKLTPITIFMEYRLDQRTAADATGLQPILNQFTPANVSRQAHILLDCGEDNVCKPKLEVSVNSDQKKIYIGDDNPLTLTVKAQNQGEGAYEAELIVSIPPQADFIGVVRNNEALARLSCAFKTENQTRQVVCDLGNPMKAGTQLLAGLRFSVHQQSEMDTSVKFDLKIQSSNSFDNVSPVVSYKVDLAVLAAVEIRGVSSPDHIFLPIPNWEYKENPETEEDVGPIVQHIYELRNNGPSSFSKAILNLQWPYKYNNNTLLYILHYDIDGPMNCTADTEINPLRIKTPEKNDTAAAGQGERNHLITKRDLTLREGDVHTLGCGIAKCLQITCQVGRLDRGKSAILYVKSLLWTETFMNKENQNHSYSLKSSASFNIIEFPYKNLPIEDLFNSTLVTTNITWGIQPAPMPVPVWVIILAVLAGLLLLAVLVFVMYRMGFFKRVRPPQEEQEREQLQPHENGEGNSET
UniProt P09055: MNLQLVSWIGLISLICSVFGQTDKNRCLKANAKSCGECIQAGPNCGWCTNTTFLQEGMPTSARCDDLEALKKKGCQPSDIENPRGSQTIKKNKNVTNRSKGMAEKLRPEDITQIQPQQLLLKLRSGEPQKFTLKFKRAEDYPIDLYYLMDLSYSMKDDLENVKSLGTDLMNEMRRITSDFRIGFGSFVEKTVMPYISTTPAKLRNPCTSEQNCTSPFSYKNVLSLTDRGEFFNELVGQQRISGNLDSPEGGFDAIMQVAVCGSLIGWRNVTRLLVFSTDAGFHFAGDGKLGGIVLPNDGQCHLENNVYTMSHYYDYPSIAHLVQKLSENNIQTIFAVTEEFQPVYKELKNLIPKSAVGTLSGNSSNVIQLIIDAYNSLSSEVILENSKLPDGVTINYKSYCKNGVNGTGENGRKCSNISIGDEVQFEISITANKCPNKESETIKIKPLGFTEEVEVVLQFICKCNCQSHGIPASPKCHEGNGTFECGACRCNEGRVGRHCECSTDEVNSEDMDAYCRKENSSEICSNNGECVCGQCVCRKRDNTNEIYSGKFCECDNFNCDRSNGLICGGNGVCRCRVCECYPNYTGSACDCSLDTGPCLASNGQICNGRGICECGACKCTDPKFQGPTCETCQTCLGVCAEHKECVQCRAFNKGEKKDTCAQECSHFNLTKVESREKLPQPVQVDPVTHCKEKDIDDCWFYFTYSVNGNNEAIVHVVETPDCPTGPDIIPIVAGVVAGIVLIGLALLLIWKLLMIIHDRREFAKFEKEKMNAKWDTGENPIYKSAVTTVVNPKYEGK
UniProt O54890: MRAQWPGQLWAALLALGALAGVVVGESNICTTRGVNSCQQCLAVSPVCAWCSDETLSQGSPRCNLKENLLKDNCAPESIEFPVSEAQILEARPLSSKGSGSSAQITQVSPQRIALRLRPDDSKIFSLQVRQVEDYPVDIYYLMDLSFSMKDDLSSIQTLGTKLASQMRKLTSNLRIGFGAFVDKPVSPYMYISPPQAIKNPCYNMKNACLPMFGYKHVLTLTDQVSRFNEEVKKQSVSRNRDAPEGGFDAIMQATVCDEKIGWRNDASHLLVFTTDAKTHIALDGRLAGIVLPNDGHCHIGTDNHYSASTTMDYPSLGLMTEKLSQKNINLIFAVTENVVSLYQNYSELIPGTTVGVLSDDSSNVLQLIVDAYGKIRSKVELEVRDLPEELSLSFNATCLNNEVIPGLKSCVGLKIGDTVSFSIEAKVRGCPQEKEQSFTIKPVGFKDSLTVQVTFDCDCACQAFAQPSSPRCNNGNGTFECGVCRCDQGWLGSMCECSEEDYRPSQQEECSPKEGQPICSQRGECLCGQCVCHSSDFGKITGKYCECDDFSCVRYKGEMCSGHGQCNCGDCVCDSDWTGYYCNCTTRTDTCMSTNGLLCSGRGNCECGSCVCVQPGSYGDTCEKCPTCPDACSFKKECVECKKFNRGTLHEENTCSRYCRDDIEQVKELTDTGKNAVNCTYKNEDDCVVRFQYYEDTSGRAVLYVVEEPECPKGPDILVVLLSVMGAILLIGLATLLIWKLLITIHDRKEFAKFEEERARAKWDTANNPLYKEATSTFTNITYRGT
UniProt O70309: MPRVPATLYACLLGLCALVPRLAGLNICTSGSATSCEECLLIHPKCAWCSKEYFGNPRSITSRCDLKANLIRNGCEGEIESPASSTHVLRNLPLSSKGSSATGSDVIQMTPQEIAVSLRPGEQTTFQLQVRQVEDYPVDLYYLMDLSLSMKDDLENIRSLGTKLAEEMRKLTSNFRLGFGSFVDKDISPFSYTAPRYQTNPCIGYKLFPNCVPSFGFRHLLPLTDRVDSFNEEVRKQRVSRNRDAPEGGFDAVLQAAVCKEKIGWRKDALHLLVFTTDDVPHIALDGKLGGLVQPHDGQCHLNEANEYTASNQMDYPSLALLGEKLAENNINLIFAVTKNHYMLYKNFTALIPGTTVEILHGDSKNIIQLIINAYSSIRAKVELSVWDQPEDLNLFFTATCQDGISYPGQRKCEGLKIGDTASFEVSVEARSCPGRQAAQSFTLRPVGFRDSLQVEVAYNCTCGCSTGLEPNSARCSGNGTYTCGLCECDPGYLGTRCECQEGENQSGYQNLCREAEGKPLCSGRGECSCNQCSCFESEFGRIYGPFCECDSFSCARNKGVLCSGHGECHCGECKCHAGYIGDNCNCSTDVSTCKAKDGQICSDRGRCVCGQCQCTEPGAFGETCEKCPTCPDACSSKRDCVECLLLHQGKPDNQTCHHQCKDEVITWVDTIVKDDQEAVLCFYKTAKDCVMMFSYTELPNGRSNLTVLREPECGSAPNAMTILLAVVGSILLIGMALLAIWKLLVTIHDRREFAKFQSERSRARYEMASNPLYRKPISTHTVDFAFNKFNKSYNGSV
UniProt P10923, residues 17-294: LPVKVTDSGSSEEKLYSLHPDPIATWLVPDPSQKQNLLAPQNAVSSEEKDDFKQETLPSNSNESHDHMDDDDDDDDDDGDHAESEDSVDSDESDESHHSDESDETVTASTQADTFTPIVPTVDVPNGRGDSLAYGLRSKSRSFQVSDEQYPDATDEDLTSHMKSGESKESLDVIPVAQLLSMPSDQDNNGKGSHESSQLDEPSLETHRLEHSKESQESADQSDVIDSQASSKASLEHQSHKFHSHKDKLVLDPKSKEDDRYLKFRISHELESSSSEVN

Tests used:
[1] = target: integrin α5 (OPN receptor subunit) of mouse osteoblasts (mouse) (UniProt P11688); test: co-immunoprecipitation from mouse osteoblast lysates with receptor antibody, Western blot for OPN
[2] = target: integrin αv (OPN receptor subunit) of mouse osteoblasts (mouse) (UniProt P43406); test: as above
[3] = target: integrin β1 (OPN receptor subunit) of mouse osteoblasts (mouse) (UniProt P09055); test: as above
[4] = target: integrin β3 (OPN receptor subunit) of mouse osteoblasts (mouse) (UniProt O54890); test: as above
[5] = target: integrin β5 (OPN receptor subunit) of mouse osteoblasts (mouse) (UniProt O70309); test: as above
[6] = target: integrin α5 (OPN receptor subunit) of mouse osteoblasts (mouse) (UniProt P11688); test: co-immunoprecipitation from mouse osteoblast lysates with receptor subunit antibody, Western blot for OPN (FIG. 5C)
[7] = target: integrin αv (OPN receptor subunit) of mouse osteoblasts (mouse) (UniProt P43406); test: as above
[8] = target: integrin β1 (OPN receptor subunit) of mouse osteoblasts (mouse) (UniProt P09055); test: as above
[9] = target: integrin β3 (OPN receptor subunit) of mouse osteoblasts (mouse) (UniProt O54890); test: as above
[10] = target: integrin β5 (OPN receptor subunit) of mouse osteoblasts (mouse) (UniProt O70309); test: as above

Measured: binding

osteopontin (OPN), endogenous, in lysates of mouse osteoblasts (from UniProt P10923 17-294) (ligand)
binds: all assays above
